Laboratory results reported in publication PMC5297747.

Chains of the proteins cited; added tags and fusions are not shown. Lines headed by an entry give the natural chain unless they say otherwise; changes in a name come on top. Residues count along the entry.
UniProt B1YBJ2: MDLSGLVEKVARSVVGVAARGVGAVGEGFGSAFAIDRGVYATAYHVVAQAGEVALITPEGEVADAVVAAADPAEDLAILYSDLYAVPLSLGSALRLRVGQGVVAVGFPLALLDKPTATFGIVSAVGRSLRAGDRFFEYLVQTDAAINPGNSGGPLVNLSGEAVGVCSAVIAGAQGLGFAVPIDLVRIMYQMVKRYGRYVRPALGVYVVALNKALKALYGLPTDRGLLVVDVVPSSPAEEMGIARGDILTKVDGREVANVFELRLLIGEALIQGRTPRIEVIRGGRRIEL
UniProt P06873, residues 106-384: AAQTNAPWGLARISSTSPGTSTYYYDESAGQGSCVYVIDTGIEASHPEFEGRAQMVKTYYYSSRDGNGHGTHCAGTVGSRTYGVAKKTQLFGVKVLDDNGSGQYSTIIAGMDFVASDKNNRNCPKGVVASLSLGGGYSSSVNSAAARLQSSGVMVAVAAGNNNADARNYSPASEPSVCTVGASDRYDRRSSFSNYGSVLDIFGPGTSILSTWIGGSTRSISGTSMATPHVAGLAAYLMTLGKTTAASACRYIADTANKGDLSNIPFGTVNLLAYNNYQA
UniProt P00772, residues 27-266: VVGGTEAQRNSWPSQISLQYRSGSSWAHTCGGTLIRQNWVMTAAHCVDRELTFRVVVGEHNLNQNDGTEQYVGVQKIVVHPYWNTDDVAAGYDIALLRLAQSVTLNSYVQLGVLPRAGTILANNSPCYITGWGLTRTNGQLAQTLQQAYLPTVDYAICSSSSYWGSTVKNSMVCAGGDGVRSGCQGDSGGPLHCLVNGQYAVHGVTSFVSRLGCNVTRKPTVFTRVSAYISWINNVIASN
UniProt B1YBN4: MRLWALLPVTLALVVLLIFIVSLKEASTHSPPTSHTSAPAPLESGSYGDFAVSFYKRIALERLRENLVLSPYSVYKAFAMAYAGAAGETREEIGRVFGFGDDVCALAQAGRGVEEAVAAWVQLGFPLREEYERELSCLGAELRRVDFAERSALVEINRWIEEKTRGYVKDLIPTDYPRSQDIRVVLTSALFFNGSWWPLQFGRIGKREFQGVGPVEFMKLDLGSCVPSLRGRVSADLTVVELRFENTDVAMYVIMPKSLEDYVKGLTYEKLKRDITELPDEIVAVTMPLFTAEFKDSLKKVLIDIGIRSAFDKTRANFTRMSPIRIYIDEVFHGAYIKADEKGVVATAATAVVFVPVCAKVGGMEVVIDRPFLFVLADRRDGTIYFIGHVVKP

How the values were obtained:
Assay in all cases: SDS-PAGE of SDS-resistant covalent complex; Pnserpin incubated with protease in buffer B at molar ratios 0.5 to 4 at 50 °C (80 °C for PnCHT) for 2 min; stopped with reducing SDS-PAGE buffer and boiling for 10 min; 10% gel, Coomassie staining; both purified
[1] = biological target: PnCHT, chymotrypsin-like serine protease of Pyrobaculum neutrophilum (Pyrobaculum neutrophilum) (UniProt B1YBJ2)
[2] = biological target: proteinase k (UniProt P06873)
[3] = biological target: porcine pancreatic elastase (porcine) (UniProt P00772)
[4] = biological target: T1, subtilisin Carlsberg (UniProt P00780)
T1 sequence: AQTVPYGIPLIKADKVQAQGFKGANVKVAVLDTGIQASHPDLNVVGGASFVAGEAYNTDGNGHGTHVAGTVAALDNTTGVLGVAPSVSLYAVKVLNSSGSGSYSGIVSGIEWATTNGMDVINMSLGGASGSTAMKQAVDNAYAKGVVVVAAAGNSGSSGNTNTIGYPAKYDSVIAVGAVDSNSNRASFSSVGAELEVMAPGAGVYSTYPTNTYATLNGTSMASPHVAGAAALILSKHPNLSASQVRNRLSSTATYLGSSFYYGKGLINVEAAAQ

Measured: binding

Pnserpin (from UniProt B1YBN4)
binds: all assays above

These are yes or no findings as the source states them, for the method shown. A result given as binding can be weak or reduced; the word gives no strength.
